Here are results for 2 substances from article PMC5871684.

For the experiment, the target named is T1, TOPLESS (TPL) fused with GAL4 DNA binding domain (Arabidopsis thaliana) (UniProt Q94AI7).
T1 sequence: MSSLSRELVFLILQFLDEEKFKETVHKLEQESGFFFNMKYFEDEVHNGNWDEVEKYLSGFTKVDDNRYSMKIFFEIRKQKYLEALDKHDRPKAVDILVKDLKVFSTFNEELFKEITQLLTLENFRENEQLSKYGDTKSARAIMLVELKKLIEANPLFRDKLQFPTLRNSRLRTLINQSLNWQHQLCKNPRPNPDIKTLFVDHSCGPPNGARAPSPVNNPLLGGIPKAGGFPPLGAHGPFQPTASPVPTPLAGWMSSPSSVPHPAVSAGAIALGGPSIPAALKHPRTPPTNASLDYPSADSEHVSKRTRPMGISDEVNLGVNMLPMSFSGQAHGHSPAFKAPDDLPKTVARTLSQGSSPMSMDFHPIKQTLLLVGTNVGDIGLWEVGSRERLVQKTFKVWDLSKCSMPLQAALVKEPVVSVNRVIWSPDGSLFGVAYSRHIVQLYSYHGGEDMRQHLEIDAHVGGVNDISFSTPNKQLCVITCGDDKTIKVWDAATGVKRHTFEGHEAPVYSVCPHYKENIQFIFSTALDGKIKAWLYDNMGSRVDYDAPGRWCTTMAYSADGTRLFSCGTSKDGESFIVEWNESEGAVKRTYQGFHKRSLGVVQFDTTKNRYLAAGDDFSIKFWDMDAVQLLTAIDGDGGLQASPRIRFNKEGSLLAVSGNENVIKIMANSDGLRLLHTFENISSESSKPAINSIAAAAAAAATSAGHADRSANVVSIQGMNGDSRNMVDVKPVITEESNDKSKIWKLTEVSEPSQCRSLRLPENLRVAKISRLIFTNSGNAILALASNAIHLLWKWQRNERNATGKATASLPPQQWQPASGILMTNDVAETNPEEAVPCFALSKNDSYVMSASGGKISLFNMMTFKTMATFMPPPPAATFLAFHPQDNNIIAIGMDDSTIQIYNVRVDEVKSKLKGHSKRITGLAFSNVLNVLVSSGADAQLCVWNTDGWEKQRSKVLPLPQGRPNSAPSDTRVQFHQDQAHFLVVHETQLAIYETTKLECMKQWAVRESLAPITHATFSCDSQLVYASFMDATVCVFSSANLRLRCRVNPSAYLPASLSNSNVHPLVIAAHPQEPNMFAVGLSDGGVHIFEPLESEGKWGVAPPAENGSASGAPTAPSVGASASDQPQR
Description: two-hybrid; Matchmaker system, yeast AH109, co-transformation; TPL fused with GAL4-BD, ARF2 full length, domains or mutated MDs fused with GAL4-AD; serial 1:10 dilutions on SD2-, SD3- (0.2-0.5 mM 3-amino-triazole) or SD4-, 30°C, growth observed 4-10 days after plating.

Results are given in words; binding and its absence hold for the method and conditions named. Binding calls can cover weak binding; strength is not graded here. Sequences can lack the tags named with a protein.

With “ARF2 middle domain with the EAR motif mutation (MDma) fused with GAL4 activation domain (Arabidopsis thaliana) (domain or fragment)”, the binding result is given as “binds”.
Consider “ARF2 middle domain with the RLFGI motif mutation (MDmb) fused with GAL4 activation domain (Arabidopsis thaliana) (domain or fragment)”, for which the binding result was “no binding”.
